Read-outs that look alike come from different tables or passages of the source.
How the values were obtained:
[1] = target: T1, α1-acid glycoprotein (AGP) (Homo sapiens, UniProt P02763); test: in vitro
Method: This system features the proteins of interest covalently bound to the surface of silica beads through the use of proprietary attachment chemistry. The surface was designed to minimize interactions with drug molecules, thus preventing non-specific binding of test substances.
AGP or HSA protein-coated beads (Sovicell, Leipzig, Germany; distributed by ADMEcell, Emeryville, CA) were thawed at room temperature for two hours. Stock solutions of each compound were diluted to a final sample concentration of 20 µM or 50 µM. Samples (45 µL) were added to 405 µL of premixed solutions of buffer and AGP or HSA coated beads and mixed thoroughly to keep the beads suspended in solution to allow for the compounds to bind to the protein coated beads, [30]. After centrifuging, 100 µL of supernatant were transferred to a 96-well plate and analyzed on an Agilent 1100 HPLC coupled to a diode array detector.
After equilibrating the column with 50 mM ammonium acetate buffer/acetonitrile (99%/1%) at a flow rate of 500 µL/min for ∼2 minutes, compounds were detected by initiating a five minute gradient to 100% acetonitrile, held for 3 minutes, followed by a one minute gradient to 1% acetonitrile, where the composition was then maintained for the final three minutes, for a total run time of 12 minutes. […] Data were evaluated using the Sovicell-supplied Microsoft Excel (Redmond, WA) spreadsheets, [44].

By UniProt entry, the sequences of proteins in these tests, tags left out. Residues count along the entry.
UniProt P02763, 19-201: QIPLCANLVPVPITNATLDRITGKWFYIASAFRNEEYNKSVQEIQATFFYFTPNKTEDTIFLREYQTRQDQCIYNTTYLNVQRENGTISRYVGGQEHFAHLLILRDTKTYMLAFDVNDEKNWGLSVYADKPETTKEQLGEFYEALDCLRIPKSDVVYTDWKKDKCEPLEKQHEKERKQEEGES

[2] = target: T1, α1-acid glycoprotein (AGP); test: biochemical
[3] = target: T1, α1-acid glycoprotein (AGP); test: biochemical; remark: listed apart in the source

COc1ccc2cc([C@H](C)C(=O)O)ccc2c1 [Naproxen, naproxen]
Kd at 2 min, 50 µM [1]: 688 µM | IC50 [2]: > 1000 µM | IC50 [3]: > 1140 µM
